Experimental data from article PMC4079325.
Results are given in words; binding and its absence hold for the method and conditions named. In cells and extracts the contact can be indirect. Some entries that bind do so weakly or less than the wild type. Sequences can lack the tags named with a protein.

Molecular target: T1, human wild-type SULT4A1 (human) (UniProt Q9BR01)
T1 sequence: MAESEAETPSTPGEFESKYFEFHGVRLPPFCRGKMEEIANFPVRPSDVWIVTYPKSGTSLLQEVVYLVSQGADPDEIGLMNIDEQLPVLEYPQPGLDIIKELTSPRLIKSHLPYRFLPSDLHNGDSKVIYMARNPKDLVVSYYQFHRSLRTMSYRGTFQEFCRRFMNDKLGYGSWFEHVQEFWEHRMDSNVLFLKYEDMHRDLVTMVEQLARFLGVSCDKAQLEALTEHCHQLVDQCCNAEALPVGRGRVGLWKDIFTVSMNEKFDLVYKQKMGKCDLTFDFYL
Test: co-IP; IMR-32 cells co-transfected with HA-tagged SULT4A1 and a FLAG-tagged SULT4A1 construct for 24 hr; lysis in 1% Triton X-100, 50 mM Tris pH 7.4, 150 mM NaCl, 1 mM EDTA; precipitated with anti-HA antibody and protein A agarose at 4°C; detected with anti-FLAG antibody

B1: human wild-type SULT4A1 (enzyme, UniProt Q9BR01 1-284)
chain: MAESEAETPSTPGEFESKYFEFHGVRLPPFCRGKMEEIANFPVRPSDVWIVTYPKSGTSLLQEVVYLVSQGADPDEIGLMNIDEQLPVLEYPQPGLDIIKELTSPRLIKSHLPYRFLPSDLHNGDSKVIYMARNPKDLVVSYYQFHRSLRTMSYRGTFQEFCRRFMNDKLGYGSWFEHVQEFWEHRMDSNVLFLKYEDMHRDLVTMVEQLARFLGVSCDKAQLEALTEHCHQLVDQCCNAEALPVGRGRVGLWKDIFTVSMNEKFDLVYKQKMGKCDLTFDFYL
For B1, the binding was “binds”.

B2: FLAG-tagged SULT4A1 TV>AE mutant (enzyme, UniProt Q9BR01 1-284)
chain: MAESEAETPSTPGEFESKYFEFHGVRLPPFCRGKMEEIANFPVRPSDVWIVTYPKSGTSLLQEVVYLVSQGADPDEIGLMNIDEQLPVLEYPQPGLDIIKELTSPRLIKSHLPYRFLPSDLHNGDSKVIYMARNPKDLVVSYYQFHRSLRTMSYRGTFQEFCRRFMNDKLGYGSWFEHVQEFWEHRMDSNVLFLKYEDMHRDLVTMVEQLARFLGVSCDKAQLEALTEHCHQLVDQCCNAEALPVGRGRVGLWKDIFAESMNEKFDLVYKQKMGKCDLTFDFYL
For B2, the binding was “no binding”.
